Measured values published in US20260243780A1.
No constants are given. Whether binding was seen depends on the method and setting. In cells and extracts the contact can be indirect. These calls come from enrichment with a bait or labelling near it, and not all partners need be listed. Tags and fused reporters may be left off the sequences shown.

Protein sequences, listed by entry. Tags and fused reporters are not part of them. Residues count along the entry.
UniProt P08195, residues 103-630: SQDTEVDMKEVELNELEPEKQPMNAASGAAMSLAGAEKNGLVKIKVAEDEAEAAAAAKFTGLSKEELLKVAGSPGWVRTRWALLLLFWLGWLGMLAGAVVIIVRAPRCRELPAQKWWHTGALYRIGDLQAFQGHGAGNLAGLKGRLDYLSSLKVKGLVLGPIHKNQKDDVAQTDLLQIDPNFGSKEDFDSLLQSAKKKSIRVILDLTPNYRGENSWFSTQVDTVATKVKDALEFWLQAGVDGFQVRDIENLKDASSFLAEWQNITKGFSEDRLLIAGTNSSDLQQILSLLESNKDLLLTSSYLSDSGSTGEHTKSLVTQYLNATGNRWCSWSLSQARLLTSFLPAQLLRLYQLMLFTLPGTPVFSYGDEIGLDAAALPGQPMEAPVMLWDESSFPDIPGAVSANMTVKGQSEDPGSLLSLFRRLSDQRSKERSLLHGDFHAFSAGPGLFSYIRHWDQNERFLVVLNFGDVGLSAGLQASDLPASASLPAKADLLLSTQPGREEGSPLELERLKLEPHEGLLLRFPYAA

Legend:
[1] = biological target: TFRC (transferrin receptor protein 1) endogenous to 293T cells (human) (UniProt P02786); assay: co-immunoprecipitation, protein mass spectrometry identification
[2] = biological target: SLC3A2 endogenous to 293T cells (human) (UniProt P08195); assay: as above
[3] = biological target: TFRC (transferrin receptor protein 1) endogenous to 293T cells (human) (UniProt P02786); assay: co-immunoprecipitation with anti-His antibody from transfected 293T lysate, mass spectrometry identification
[4] = biological target: SLC3A2 endogenous to 293T cells (human) (UniProt P08195); assay: as above

Measured: binding

B1: hCf48-his (human Cf48 with His tag, expressed from the hCf48-his-IRES-GFP plasmid in 293T cells) (peptide, not shown: small tags and cut ends)
peptide: EPAGSAVPAQSRPCVDCHAFEFMQRALQDLRKTACSLDARTETLLLQAERRALCACWPAGH
binds: all assays above
